# Data taken from the supplement of paper PMC8728848.
# The other results are listed elsewhere or left out.
# B1: SLLPI (Mus musculus), Q9D9X8 (protein)
# chain: MGICMSMYTQVLVPVDADGDHHILWSRFYERWGSCFNPCAGLVNCLPPHSSALYLCHRMEARSRAPRRQLCPPGITWLALAYLLSCLLASSKAKVFSRCELAKEMHDFGLDGYRGYNLADWVCLAYYTSGFNTNAVDHEADGSTNNGIFQISSRRWCRTLASNGPNLCRIYCTDLLNNDLKDSIVCAMKIVQEPLGLGYWEAWRHHCQGRDLSDWVDGCDF
# Assays:
# Assay in all cases: glycan array binding signal (z-score within array); higher = stronger binding
# Conditions in all cases: glycan notation: IUPAC condensed, linker removed
# Fuc(a1-2)Gal = molecular target: Fuc(a1-2)Gal
# Method in brief: (§1)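 The binding signal is a Z-score computed within each array. Data were drawn from 3228 arrays in the Consortium for Functional Glycomics database, restricted to those with a known protein sequence. Scores were averaged over arrays of the same protein sequence at different concentrations or buffers, and over linkers, and negative values can be taken as non-binding.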
# Fuc(a1-2)Gal(b1-3)GalNAc = molecular target: Fuc(a1-2)Gal(b1-3)GalNAc
# Method in brief: as §1
# [1] = molecular target: Fuc(a1-2)Gal(b1-3)GalNAc(b1-3)Gal
# Method in brief: as §1
# [2] = molecular target: Fuc(a1-2)Gal(b1-3)GalNAc(b1-3)Gal(a1-4)Gal(b1-4)Glc
# Method in brief: as §1
# [3] = molecular target: Fuc(a1-2)Gal(b1-3)GalNAc(b1-4)[Neu5Ac(a2-3)]Gal(b1-4)Glc
# Method in brief: as §1
# Fuc(a1-2)Gal(b1-3)GlcNAc = molecular target: Fuc(a1-2)Gal(b1-3)GlcNAc
# Method in brief: as §1
# [4] = molecular target: Fuc(a1-2)Gal(b1-3)GlcNAc(b1-3)Gal(b1-4)Glc
# Method in brief: as §1
# [5] = molecular target: Fuc(a1-2)Gal(b1-3)[Fuc(a1-4)]GlcNAc
# Method in brief: as §1
# Fuc(a1-2)Gal(b1-4)Glc = molecular target: Fuc(a1-2)Gal(b1-4)Glc
# Method in brief: as §1
# Fuc(a1-2)Gal(b1-4)Glc6S = molecular target: Fuc(a1-2)Gal(b1-4)Glc6S
# Method in brief: as §1
# Fuc(a1-2)Gal(b1-4)GlcNAc = molecular target: Fuc(a1-2)Gal(b1-4)GlcNAc
# Method in brief: as §1
# [6] = molecular target: Fuc(a1-2)Gal(b1-4)GlcNAc(b1-3)Gal(b1-4)GlcNAc
# Method in brief: as §1
# [7] = molecular target: Fuc(a1-2)Gal(b1-4)GlcNAc(b1-3)Gal(b1-4)GlcNAc(b1-3)Gal(b1-4)GlcNAc
# Method in brief: as §1
# [8] = molecular target: Fuc(a1-2)Gal(b1-4)GlcNAc6S
# Method in brief: as §1
# [9] = molecular target: Fuc(a1-2)Gal(b1-4)[Fuc(a1-3)]GlcNAc
# Method in brief: as §1
# [10] = molecular target: Fuc(a1-2)Gal(b1-4)[Fuc(a1-3)]GlcNAc(b1-3)Gal(b1-4)[Fuc(a1-3)]GlcNAc
# Method in brief: as §1
# [11] = molecular target: Fuc(a1-2)Gal(b1-4)[Fuc(a1-3)]GlcNAc(b1-3)Gal(b1-4)[Fuc(a1-3)]GlcNAc(b1-3)Gal(b1-4)[Fuc(a1-3)]GlcNAc
# Method in brief: as §1
# Fuc(a1-2)Gal6S(b1-4)Glc = molecular target: Fuc(a1-2)Gal6S(b1-4)Glc
# Method in brief: as §1
# [12] = molecular target: Fuc(a1-2)Gal6S(b1-4)Glc6S
# Method in brief: as §1
# [13] = molecular target: Fuc(a1-2)Gal6S(b1-4)GlcNAc
# Method in brief: as §1
# Fuc(a1-2)[Gal(a1-3)]Gal = molecular target: Fuc(a1-2)[Gal(a1-3)]Gal
# Method in brief: as §1
# [14] = molecular target: Fuc(a1-2)[Gal(a1-3)]Gal(b1-3)GlcNAc
# Method in brief: as §1
# [15] = molecular target: Fuc(a1-2)[Gal(a1-3)]Gal(b1-4)Glc
# Method in brief: as §1
# [16] = molecular target: Fuc(a1-2)[Gal(a1-3)]Gal(b1-4)GlcNAc
# Method in brief: as §1
# [17] = molecular target: Fuc(a1-2)[Gal(a1-3)]Gal(b1-4)[Fuc(a1-3)]GlcNAc
# Method in brief: as §1
# [18] = molecular target: Fuc(a1-2)[Gal(a1-4)]Gal(b1-4)GlcNAc
# Method in brief: as §1
# [19] = molecular target: Fuc(a1-2)[GalNAc(a1-3)]Gal
# Method in brief: as §1
# [20] = molecular target: Fuc(a1-2)[GalNAc(a1-3)]Gal(b1-3)GlcNAc
# Method in brief: as §1
# [21] = molecular target: Fuc(a1-2)[GalNAc(a1-3)]Gal(b1-4)Glc
# Method in brief: as §1
# [22] = molecular target: Fuc(a1-2)[GalNAc(a1-3)]Gal(b1-4)GlcNAc
# Method in brief: as §1
binder,measurement,setting,value
B1,glycan array binding signal (z-score),Fuc(a1-2)Gal,1.1
same,glycan array binding signal (z-score),Fuc(a1-2)Gal(b1-3)GalNAc,-1.15
same,glycan array binding signal (z-score),[1],0.084
same,glycan array binding signal (z-score),[2],-0.578
same,glycan array binding signal (z-score),[3],0.39
same,glycan array binding signal (z-score),Fuc(a1-2)Gal(b1-3)GlcNAc,-0.59
same,glycan array binding signal (z-score),[4],-0.98
same,glycan array binding signal (z-score),[5],1.07
same,glycan array binding signal (z-score),Fuc(a1-2)Gal(b1-4)Glc,-0.25
same,glycan array binding signal (z-score),Fuc(a1-2)Gal(b1-4)Glc6S,-0.22
same,glycan array binding signal (z-score),Fuc(a1-2)Gal(b1-4)GlcNAc,-0.019
same,glycan array binding signal (z-score),[6],-0.448
same,glycan array binding signal (z-score),[7],-0.164
same,glycan array binding signal (z-score),[8],0.445
same,glycan array binding signal (z-score),[9],-0.556
same,glycan array binding signal (z-score),[10],-0.528
same,glycan array binding signal (z-score),[11],-0.384
same,glycan array binding signal (z-score),Fuc(a1-2)Gal6S(b1-4)Glc,1.28
same,glycan array binding signal (z-score),[12],1.85
same,glycan array binding signal (z-score),[13],-0.384
same,glycan array binding signal (z-score),Fuc(a1-2)[Gal(a1-3)]Gal,0.167
same,glycan array binding signal (z-score),[14],-0.779
same,glycan array binding signal (z-score),[15],-1.68
same,glycan array binding signal (z-score),[16],-0.619
same,glycan array binding signal (z-score),[17],-0.194
same,glycan array binding signal (z-score),[18],-0.172
same,glycan array binding signal (z-score),[19],0.247
same,glycan array binding signal (z-score),[20],-1.07
same,glycan array binding signal (z-score),[21],-0.516
same,glycan array binding signal (z-score),[22],-0.142

# Fetched one by one from above, 2 records:
binder,measurement,setting,value
B1,glycan array binding signal (z-score),Fuc(a1-2)Gal(b1-4)Glc6S,-0.22
same,glycan array binding signal (z-score),[22],-0.142
